± gives the standard deviation of the averaged measurements. The list shows a part of the results, in another mix than the full data. Most values lie at the level of the controls, where differences are scatter.
Compound: Nc1ncnc2c1ncn2[C@@H]1O[C@H](COP(=O)(O)OP(=O)(O)OP(=O)(O)O)[C@@H](O)[C@H]1O [adenosine triphosphate]
Experiment: NP40-soluble protein abundance relative to vehicle (solubility fold change) (ratio); higher = more soluble protein in presence of ATP
Method in brief: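 Jurkat crude lysate prepared with a Dounce homogeniser was treated at eight concentrations spanning 0.1 to 10 mM, 10 min at room temperature then 3 min at 37 °C. Solubilisation with 0.8% NP40 and benzonase and ultracentrifugation preceded TMT labelling of the supernatant for LC-MS/MS. Fold change against the detergent-processed vehicle was determined per replicate from vsn-normalised intensities, across three independent experiments.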

The chains behind the UniProt entries cited, without tags or fusion partners. Where a name states a change or a piece, a line headed by the entry shows the natural chain unless it says otherwise.
UniProt Q7Z7G8: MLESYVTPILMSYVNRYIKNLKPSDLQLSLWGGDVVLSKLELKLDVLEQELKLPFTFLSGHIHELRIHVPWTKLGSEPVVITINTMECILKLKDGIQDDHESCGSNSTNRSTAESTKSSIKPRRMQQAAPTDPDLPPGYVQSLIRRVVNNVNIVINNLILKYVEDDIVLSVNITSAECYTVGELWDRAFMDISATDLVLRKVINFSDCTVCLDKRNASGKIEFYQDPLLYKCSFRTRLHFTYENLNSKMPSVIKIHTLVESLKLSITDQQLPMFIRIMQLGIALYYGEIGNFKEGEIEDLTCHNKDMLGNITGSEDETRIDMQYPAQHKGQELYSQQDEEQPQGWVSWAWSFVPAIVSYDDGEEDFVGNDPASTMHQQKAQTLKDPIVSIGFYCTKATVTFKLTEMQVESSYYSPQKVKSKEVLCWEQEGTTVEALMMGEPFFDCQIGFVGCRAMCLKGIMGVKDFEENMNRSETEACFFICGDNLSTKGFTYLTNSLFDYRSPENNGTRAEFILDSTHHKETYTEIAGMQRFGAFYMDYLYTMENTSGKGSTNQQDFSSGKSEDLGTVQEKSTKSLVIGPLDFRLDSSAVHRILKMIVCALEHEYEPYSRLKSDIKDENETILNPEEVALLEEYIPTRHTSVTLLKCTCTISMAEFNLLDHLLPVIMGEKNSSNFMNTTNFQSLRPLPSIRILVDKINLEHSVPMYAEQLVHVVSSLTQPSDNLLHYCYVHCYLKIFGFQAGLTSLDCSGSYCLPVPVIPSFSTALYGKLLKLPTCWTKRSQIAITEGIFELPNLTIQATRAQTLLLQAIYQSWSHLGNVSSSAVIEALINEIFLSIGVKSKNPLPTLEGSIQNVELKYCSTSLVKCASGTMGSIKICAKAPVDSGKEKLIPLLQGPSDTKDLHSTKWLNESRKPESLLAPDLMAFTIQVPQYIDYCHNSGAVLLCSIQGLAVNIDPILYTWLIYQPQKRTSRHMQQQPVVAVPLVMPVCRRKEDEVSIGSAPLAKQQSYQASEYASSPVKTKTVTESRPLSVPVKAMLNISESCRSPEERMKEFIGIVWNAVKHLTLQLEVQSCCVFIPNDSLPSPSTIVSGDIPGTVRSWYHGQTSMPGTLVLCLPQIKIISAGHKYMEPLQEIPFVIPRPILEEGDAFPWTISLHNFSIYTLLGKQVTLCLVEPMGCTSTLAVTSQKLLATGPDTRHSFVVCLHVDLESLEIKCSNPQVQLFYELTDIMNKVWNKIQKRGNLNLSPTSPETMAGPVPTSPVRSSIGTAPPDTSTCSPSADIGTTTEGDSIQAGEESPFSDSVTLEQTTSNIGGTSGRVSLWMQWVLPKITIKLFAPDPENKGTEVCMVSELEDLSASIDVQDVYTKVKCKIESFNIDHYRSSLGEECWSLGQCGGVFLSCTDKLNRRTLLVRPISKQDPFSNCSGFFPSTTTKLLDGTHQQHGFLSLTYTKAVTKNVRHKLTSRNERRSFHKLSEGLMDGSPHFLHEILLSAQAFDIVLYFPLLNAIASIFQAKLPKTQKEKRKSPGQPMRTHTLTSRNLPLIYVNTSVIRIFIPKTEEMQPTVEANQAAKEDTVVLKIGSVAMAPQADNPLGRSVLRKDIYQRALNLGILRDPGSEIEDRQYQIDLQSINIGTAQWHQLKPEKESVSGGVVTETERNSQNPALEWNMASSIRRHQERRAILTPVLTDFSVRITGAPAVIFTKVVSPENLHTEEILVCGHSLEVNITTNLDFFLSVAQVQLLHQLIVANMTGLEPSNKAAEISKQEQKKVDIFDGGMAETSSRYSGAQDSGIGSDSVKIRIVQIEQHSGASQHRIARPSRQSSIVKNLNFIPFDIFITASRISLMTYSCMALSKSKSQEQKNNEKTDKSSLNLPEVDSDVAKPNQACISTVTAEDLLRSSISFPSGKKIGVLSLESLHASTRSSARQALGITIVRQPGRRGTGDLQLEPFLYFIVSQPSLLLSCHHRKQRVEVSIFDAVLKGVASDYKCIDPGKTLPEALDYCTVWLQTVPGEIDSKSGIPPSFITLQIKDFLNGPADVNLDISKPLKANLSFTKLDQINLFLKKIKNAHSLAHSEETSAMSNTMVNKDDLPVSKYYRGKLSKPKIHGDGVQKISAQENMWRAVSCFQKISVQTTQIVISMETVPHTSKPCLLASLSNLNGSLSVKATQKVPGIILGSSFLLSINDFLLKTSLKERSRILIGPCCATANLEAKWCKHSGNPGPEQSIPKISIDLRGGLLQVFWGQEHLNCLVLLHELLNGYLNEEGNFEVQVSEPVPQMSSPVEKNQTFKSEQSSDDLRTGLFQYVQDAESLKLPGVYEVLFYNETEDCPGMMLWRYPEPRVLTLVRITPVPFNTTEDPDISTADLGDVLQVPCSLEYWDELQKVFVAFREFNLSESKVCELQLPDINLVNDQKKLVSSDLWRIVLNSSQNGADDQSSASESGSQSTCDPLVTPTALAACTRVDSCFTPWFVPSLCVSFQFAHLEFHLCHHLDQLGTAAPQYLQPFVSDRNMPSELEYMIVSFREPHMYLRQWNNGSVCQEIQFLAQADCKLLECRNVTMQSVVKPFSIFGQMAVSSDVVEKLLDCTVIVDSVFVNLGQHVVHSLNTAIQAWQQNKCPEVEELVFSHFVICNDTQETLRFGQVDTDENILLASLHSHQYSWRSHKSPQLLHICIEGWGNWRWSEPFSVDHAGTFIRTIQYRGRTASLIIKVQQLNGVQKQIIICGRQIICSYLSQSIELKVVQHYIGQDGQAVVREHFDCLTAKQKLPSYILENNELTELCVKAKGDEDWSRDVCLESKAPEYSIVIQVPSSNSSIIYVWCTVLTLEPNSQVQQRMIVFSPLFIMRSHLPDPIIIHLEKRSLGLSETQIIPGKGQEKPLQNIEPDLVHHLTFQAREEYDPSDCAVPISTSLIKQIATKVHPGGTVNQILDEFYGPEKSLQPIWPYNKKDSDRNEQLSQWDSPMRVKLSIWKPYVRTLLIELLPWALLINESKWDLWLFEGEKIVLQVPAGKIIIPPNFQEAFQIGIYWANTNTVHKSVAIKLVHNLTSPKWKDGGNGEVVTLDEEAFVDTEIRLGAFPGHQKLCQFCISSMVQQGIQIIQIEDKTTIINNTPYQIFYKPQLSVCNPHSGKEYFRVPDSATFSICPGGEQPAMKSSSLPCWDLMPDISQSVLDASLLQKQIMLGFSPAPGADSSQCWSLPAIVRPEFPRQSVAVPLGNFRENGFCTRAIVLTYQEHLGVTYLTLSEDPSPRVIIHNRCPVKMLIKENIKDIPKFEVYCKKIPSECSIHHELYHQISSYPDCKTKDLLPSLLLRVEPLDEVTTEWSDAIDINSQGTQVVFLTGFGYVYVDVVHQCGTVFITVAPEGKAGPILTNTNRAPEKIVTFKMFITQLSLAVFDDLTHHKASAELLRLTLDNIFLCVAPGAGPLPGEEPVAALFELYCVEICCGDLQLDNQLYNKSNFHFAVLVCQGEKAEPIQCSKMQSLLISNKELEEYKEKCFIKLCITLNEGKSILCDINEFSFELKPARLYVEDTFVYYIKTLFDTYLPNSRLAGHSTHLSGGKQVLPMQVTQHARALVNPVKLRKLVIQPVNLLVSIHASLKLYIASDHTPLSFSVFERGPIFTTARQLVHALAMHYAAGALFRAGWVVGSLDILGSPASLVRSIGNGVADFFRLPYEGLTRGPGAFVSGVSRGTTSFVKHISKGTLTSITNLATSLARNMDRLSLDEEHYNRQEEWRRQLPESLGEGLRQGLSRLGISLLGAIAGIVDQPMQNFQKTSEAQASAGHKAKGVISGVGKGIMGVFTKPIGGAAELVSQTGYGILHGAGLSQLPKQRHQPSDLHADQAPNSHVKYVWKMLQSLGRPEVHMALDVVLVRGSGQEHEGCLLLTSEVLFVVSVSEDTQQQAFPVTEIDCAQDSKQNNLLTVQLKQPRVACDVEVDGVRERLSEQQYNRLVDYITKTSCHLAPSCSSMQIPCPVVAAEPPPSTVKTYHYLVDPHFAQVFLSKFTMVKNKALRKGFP
UniProt Q7Z569: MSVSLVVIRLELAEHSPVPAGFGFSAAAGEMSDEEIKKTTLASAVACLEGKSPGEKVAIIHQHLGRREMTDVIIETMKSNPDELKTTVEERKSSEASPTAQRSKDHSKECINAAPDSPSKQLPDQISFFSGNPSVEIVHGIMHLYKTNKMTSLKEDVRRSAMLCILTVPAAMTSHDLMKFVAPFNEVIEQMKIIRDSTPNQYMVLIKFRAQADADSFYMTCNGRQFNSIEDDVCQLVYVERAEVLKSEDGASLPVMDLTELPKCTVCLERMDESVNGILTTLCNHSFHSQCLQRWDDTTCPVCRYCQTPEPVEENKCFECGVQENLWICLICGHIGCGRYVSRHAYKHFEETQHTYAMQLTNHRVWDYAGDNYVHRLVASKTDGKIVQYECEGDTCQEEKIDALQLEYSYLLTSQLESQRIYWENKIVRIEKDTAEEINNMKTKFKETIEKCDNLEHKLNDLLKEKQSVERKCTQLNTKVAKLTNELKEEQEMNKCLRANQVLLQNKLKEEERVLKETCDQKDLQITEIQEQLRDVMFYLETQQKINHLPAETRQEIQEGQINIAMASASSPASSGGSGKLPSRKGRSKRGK
UniProt Q6UB28: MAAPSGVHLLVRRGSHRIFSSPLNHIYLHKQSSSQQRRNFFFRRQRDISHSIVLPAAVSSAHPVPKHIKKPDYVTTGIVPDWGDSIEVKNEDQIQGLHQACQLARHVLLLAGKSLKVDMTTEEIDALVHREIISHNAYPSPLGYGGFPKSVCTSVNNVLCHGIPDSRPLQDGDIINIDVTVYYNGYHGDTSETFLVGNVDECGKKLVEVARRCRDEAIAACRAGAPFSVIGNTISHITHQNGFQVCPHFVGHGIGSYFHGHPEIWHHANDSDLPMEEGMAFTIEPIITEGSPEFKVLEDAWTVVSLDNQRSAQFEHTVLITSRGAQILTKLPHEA
UniProt Q6ZWJ1: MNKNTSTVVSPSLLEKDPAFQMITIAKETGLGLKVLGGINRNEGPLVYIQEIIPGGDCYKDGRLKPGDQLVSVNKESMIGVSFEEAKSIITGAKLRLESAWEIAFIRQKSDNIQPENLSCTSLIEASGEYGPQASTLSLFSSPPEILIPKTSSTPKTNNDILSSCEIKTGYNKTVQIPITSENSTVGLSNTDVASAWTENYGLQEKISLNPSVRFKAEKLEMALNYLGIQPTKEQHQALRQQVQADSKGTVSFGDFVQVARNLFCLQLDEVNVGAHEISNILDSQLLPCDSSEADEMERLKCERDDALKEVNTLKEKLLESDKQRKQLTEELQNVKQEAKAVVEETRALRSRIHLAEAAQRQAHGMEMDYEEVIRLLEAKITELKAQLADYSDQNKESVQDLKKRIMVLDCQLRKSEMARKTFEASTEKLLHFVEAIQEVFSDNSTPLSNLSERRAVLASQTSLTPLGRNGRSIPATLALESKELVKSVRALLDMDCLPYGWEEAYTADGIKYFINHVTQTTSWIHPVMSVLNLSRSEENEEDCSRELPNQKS
UniProt Q86VQ1: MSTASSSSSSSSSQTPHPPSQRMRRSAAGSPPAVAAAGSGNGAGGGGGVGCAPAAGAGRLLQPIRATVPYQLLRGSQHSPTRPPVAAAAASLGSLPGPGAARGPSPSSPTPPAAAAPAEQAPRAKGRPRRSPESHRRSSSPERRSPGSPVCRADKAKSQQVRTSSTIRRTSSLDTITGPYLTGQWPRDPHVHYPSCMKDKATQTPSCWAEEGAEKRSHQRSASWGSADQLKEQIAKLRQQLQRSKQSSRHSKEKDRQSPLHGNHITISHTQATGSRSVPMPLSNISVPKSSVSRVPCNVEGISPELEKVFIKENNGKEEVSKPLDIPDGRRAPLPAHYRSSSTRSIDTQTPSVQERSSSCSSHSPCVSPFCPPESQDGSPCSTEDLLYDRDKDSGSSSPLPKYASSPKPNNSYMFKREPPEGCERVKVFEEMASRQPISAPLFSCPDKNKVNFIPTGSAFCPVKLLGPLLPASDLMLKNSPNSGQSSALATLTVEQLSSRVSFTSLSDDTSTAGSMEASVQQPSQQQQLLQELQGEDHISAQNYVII
UniProt Q7KYR7: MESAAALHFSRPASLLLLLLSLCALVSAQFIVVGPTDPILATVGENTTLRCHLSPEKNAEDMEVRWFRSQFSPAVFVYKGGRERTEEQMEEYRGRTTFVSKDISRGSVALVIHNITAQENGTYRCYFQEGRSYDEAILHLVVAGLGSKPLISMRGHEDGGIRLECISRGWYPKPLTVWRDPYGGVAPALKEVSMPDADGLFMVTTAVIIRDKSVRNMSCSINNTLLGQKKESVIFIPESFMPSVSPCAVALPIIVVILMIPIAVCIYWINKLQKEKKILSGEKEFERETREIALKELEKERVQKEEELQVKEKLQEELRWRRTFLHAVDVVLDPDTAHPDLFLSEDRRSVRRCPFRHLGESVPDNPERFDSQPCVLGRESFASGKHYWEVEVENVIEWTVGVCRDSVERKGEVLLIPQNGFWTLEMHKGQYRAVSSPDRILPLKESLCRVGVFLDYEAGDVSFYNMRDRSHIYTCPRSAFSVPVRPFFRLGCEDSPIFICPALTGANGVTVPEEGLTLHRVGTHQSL

Target	NP40-soluble protein abundance (concentration: 0.1mM)	NP40-soluble protein abundance (concentration: 0.5mM)
RRM2B (UniProt Q7LG56)	0.996 ± 0.058	1.04 ± 0.053
DCP2 (UniProt Q8IU60)	1.06 ± 0.019	1.07 ± 0.026
UniProt Q7L0Y3	0.982 ± 0.023	0.99 ± 0.011
UniProt Q86WA8 and related entries	0.999 ± 0.07	0.951 ± 0.054
ENOSF1 (UniProt Q7L5Y1)	1.06 ± 0.061	1.04 ± 0.06
UniProt Q86X55 and related entries	1.06 ± 0.098	1.02 ± 0.054
UniProt Q6YP21 and related entries	1.06 ± 0.14	1.05 ± 0.078
UniProt Q7Z2W9 and related entries	1.08 ± 0.17	1.03 ± 0.19
UniProt Q86V88 and related entries	0.962 ± 0.044	0.814 ± 0.047
UniProt Q7Z7G8 and related entries	0.892 ± 0.079	0.883 ± 0.079
SDCCAG8 (UniProt Q86SQ7)	1.03 ± 0.048	0.972 ± 0.021
UniProt Q86VX2 and related entries	0.996 ± 0.051	0.887 ± 0.018
UniProt Q6ZMI0	0.992 ± 0.019	1 ± 0.065
RBBP6 (UniProt Q7Z6E9)	1.03 ± 0.029	1.13 ± 0.071
UniProt Q7Z569 and related entries	1.01 ± 0.043	1.01 ± 0.05
METAP1D (UniProt Q6UB28)	1.06 ± 0.067	0.911 ± 0.12
DNMBP (UniProt Q6XZF7)	1.05 ± 0.077	1.02 ± 0.076
UniProt Q86W92 and related entries	1.04 ± 0.04	1.07 ± 0.026
CDR2L (UniProt Q86X02)	0.969 ± 0.067	0.965 ± 0.088
STXBP4 (UniProt Q6ZWJ1)	1.01 ± 0.03	1 ± 0.058

Complete entries, quoted from the list. Values in the order: NP40-soluble protein abundance (concentration: 0.1mM)	NP40-soluble protein abundance (concentration: 0.5mM)
DNMBP (UniProt Q6XZF7) reads 1.05 ± 0.077	1.02 ± 0.076
STXBP4 (UniProt Q6ZWJ1) reads 1.01 ± 0.03	1 ± 0.058
DCP2 (UniProt Q8IU60) reads 1.06 ± 0.019	1.07 ± 0.026

Additional records follow.

Target	NP40-soluble protein abundance (concentration: 0.1mM)	NP40-soluble protein abundance (concentration: 0.5mM)
MICAL3 (UniProt Q7RTP6)	1.05 ± 0.093	0.959 ± 0.018
CES3 (UniProt Q6UWW8)	1.06 ± 0.1	1.01 ± 0.089
UniProt Q6ZUT1 and related entries	0.958 ± 0.04	0.864 ± 0.12
UniProt Q86UA6 and related entries	1.05 ± 0.12	1.07 ± 0.17
TSPYL5 (UniProt Q86VY4)	0.967 ± 0.018	0.986 ± 0.038
UniProt Q86UW6 and related entries	1.04 ± 0.046	1.062 ± 0.0076
UniProt Q86TM6 and related entries	0.997 ± 0.047	0.962 ± 0.021
SMG6 (UniProt Q86US8)	1.03 ± 0.019	1.23 ± 0.038
UniProt Q6ZN18 and related entries	1.3 ± 0.16	1.14 ± 0.17
UniProt Q7KZ85 and related entries	1.04 ± 0.038	1.05 ± 0.047
UniProt Q7Z6B0 and related entries	0.9832 ± 0.0054	0.994 ± 0.036
GLCCI1 (UniProt Q86VQ1)	0.976 ± 0.076	0.953 ± 0.11
HSDL2 (UniProt Q6YN16)	0.9716 ± 0.0037	0.982 ± 0.022
UniProt Q6UUV7 and related entries	1.02 ± 0.024	0.957 ± 0.11
UniProt Q7KYR7 and related entries	1.07 ± 0.19	1.11 ± 0.19
UniProt Q6ZMG9 and related entries	0.934 ± 0.085	0.942 ± 0.17
UniProt Q71RC2 and related entries	1.03 ± 0.083	1.05 ± 0.053
UniProt Q6PJG2 and related entries	1.02 ± 0.031	1.09 ± 0.053
UniProt Q7Z4V5-2|Q7Z4V5 and related entries	0.948 ± 0.028	0.838 ± 0.067
